This passage reports survivor count and T/C results from PubChem BioAssay AID330 (DTP/NCI, 2004).

The assay deals with P388 leukemia ip, CD2F1 mice, survival T/C. Kind of assay: NCI In Vivo Anticancer Drug Screen. Data for tumor model P388 Leukemia (intraperitoneal) in CD2F1 (CDF1) mice. The following applies: T/C endpoint: median survival time, higher T/C = longer survival.
The mark [1] stands for this setting: dose: 100.0 mg/kg/injection, schedule: Q01DX009 (ip), vehicle: saline.
Setting [2] is: dose: 200.0 mg/kg/injection, schedule: Q01DX009 (ip), vehicle: saline.
[3] abbreviates: dose: 200.0 mg/kg/injection, schedule: Q01DX009 (ip), vehicle: Klucel (hydroxypropylcellulose) (HPC).
Setting [4] is: dose: 100.0 mg/kg/injection, schedule: Q01DX005 (ip), vehicle: Klucel (hydroxypropylcellulose) (HPC).
[5] abbreviates: dose: 200.0 mg/kg/injection, schedule: Q01DX005 (ip), vehicle: Klucel (hydroxypropylcellulose) (HPC).
Where [6] appears, read: dose: 120.0 mg/kg/injection, schedule: Q01DX005 (ip), vehicle: saline with Tween-80.
[7] abbreviates: dose: 240.0 mg/kg/injection, schedule: Q01DX005 (ip), vehicle: saline with Tween-80.
[8] abbreviates: dose: 60.0 mg/kg/injection, schedule: Q01DX005 (ip), vehicle: saline with Tween-80.
[9] abbreviates: dose: 200.0 mg/kg/injection, schedule: Q01DX009 (ip), vehicle: saline with Tween-80.
The mark [10] stands for this setting: dose: 100.0 mg/kg/injection, schedule: Q04DX002 (ip), vehicle: saline.
Where [11] appears, read: dose: 200.0 mg/kg/injection, schedule: Q04DX002 (ip), vehicle: saline.
The mark [12] stands for this setting: dose: 400.0 mg/kg/injection, schedule: Q04DX002 (ip), vehicle: saline.
The mark [13] stands for this setting: dose: 400.0 mg/kg/injection, schedule: Q04DX002 (ip), vehicle: saline with Tween-80.

The list does not hold the whole screen: it gathers tests that were run many times, whatever their T/C, doses with no T/C, and many T/C values between a quarter and a half above the control. Further doses and runs are listed elsewhere. T/C is the treated group as % of the vehicle group. Some doses have a count of surviving animals in place of a T/C: the source files T/C as zero there, which appears to mark a toxic dose or a test without result, not a measured value. Some survivor counts are full or nearly so, which does not show that the dose was tolerated: survival well below the control is almost never listed, so the zero probably covers shortened survival too. Survivors were counted at the toxicity check, usually on the fifth day, unless a day is given; later deaths do not show. Schedules are NCI's codes, read here as Q, the interval in days (D) or hours (H), X, the number of doses. Some entries hold several experiments; their values stand side by side, smallest first. Where survival is the endpoint, this PubChem deposit counts one and a half times the control or more as active, and values a quarter to a half above the control carry no call in these data; other NCI protocols may use other cut-offs. Some T/C values carry the count of animals alive at the toxicity check (mostly the fifth day); where none is given, no animal had died by that day.

Consider `O=c1c2cc(F)ccc2nnn1-c1ccccc1`, for which the survivor count under setting [1] is recorded as 6 of 6.

With `CC(=O)Oc1cccnc1[N+](=O)[O-]`, the T/C under setting [2] is 130 % of control. Also, the survivor count (dose: 400.0 mg/kg/injection, schedule: Q01DX009 (ip), vehicle: saline) is 2 of 6 and 5 of 6.

In the case of `c1ccc(-c2nn(-c3ccccc3)[n+](-c3ccccc3-c3ccccc3)n2)cc1`, the T/C (dose: 20.0 mg/kg/injection, schedule: Q01DX009 (ip), vehicle: saline) was 126 % of control. Moreover, the survivor count (dose: 40.0 mg/kg/injection, schedule: Q01DX009 (ip), vehicle: saline) was 0 of 6.

Regarding `Clc1cc(Cl)c2c(c1)[nH]c1nc3ccccc3nc12`, the survivor count (dose: 25.0 mg/kg/injection, schedule: Q01DX005 (ip), vehicle: saline with Tween-80) is listed as 6 of 6.

For `Cc1ccc(Cl)cc1NC(=O)Nc1nccs1`, under setting [3], the survivor count is listed as 5 of 6.

Consider `CCc1c(C#N)c(S)[nH]c(=S)c1C#N`, for which the survivor count under setting [1] was 3 of 6 and the survivor count under setting [2] was 0 of 6.

Regarding `C=Cc1cc(OC)c2c(c1)c(=O)oc1c2cc(OC)c2c(O)ccc(C3OC(C(C)O)C(O)C3O)c21` (stereo unspecified), the T/C is 127 % of control (dose: 4.0 mg/kg/injection, schedule: Q04DX003 (ip), vehicle: DMSO); 135 % of control (dose: 8.0 mg/kg/injection, schedule: Q04DX003 (ip), vehicle: DMSO); 148 % of control (dose: 16.0 mg/kg/injection, schedule: Q04DX003 (ip), vehicle: DMSO); 131 and 142 % of control [4 of 5 alive] (dose: 25.0 mg/kg/injection, schedule: Q01DX005 (ip), vehicle: Klucel (hydroxypropylcellulose) (HPC)); 141 and 142 % of control (dose: 50.0 mg/kg/injection, schedule: Q01DX005 (ip), vehicle: Klucel (hydroxypropylcellulose) (HPC)); 136 and 147 % of control under setting [4]. Further, the T/C was 142 % of control (dose: 120.0 mg/kg/injection, schedule: Q01DX005 (ip), vehicle: Klucel (hydroxypropylcellulose) (HPC)) and 140 % of control under setting [5]. The survivor count (dose: 240.0 mg/kg/injection, schedule: Q01DX005 (ip), vehicle: Klucel (hydroxypropylcellulose) (HPC)) is 6 of 6.

Turning to `Cc1ccc(-n2c(CSc3ccc(Cl)cc3)nnc2SCc2nc3ccccc3[nH]2)cc1`, the survivor count reads like this: under setting [6], 6 of 6; under setting [7], 6 of 6.

On to `COc1ccc(/C(=N/SC)N(C)C)cc1`, for which the survivor count runs as follows: under setting [8], 0 of 6; under setting [6], 0 of 6; under setting [7], 0 of 6.

Consider `CCCCCCN(CCCCCC)P(=O)(N1CC1C)N1CC1C` (stereo unspecified), for which the survivor count was 6 of 6 (dose: 12.5 mg/kg/injection, schedule: Q01DX009 (ip), vehicle: saline with Tween-80); 5 of 6 (dose: 25.0 mg/kg/injection, schedule: Q01DX009 (ip), vehicle: saline with Tween-80); 3 of 6 and 5 of 6 (dose: 50.0 mg/kg/injection, schedule: Q01DX009 (ip), vehicle: saline with Tween-80); 5 of 6 (dose: 100.0 mg/kg/injection, schedule: Q04DX003 (ip), vehicle: saline with Tween-80); 1 of 6 (dose: 200.0 mg/kg/injection, schedule: Q04DX003 (ip), vehicle: saline with Tween-80); 0 of 6 (dose: 400.0 mg/kg/injection, schedule: Q04DX003 (ip), vehicle: saline with Tween-80).

Turning to `C=C1C(=O)OC2C1CC/C(C)=C/CCC1(C)OC21` (stereo unspecified), where the note is “dose: 35.0 mg/kg/injection, schedule: Q01DX009 (ip), vehicle: Klucel (hydroxypropylcellulose) (HPC)”, the T/C was 136 % of control.

Turning to `O=C(c1ccccc1)c1c(CO[N+](=O)[O-])n([O-])c2ccccc2[n+]1=O`, the T/C is, setting by setting: (dose: 15.0 mg/kg/injection, schedule: Q01DX005 (ip), vehicle: saline with Tween-80) 130 % of control; (dose: 30.0 mg/kg/injection, schedule: Q01DX005 (ip), vehicle: saline with Tween-80) 138 % of control. Besides, the survivor count by setting is: under setting [8], 5 of 6; under setting [6], 6 of 6; under setting [7], 0 of 6.

In the case of `CCN(CC)CCNc1c(OC)cc(C)c2sc3ccccc3c(=O)c12`, the survivor count under setting [9] is reported as 0 of 6.

Regarding `C[N+](C)(C)CC[N+](C)(C)Cc1cccc2ccccc12`, under setting [2], the survivor count is 1 of 6.

In the case of `Cc1cc2cc3n(c2nn1)N=C(Cl)CC3`, the survivor count under setting [7] is listed as 1 of 6.

As to `CC(/C=C/C1(C)C(C)CCC(=O)C1C)=C\Cc1c(O)c(Cl)c(C)c(C=O)c1O` (stereo unspecified), the T/C (dose: 12.5 mg/kg/injection, schedule: Q01DX009 (ip), vehicle: Klucel (hydroxypropylcellulose) (HPC)) is 126 % of control. For the same molecule, the survivor count reads like this: (dose: 25.0 mg/kg/injection, schedule: Q01DX009 (ip), vehicle: Klucel (hydroxypropylcellulose) (HPC)) 1 of 6 and 2 of 6; (dose: 50.0 mg/kg/injection, schedule: Q01DX009 (ip), vehicle: Klucel (hydroxypropylcellulose) (HPC)) 0 of 6; (dose: 100.0 mg/kg/injection, schedule: Q01DX009 (ip), vehicle: Klucel (hydroxypropylcellulose) (HPC)) 0 of 6; under setting [3], 0 of 6.

With `CCN(CC)c1cc(C(=O)O)cc(N(CC)CC)n1`, the T/C under setting [4] is 132 % of control. The survivor count is, setting by setting: under setting [4], 1 of 6 and 2 of 6; (dose: 100.0 mg/kg/injection, schedule: Q01DX005 (ip), vehicle: sodium bicarbonate) 3 of 6; under setting [5], 0 of 6; (dose: 200.0 mg/kg/injection, schedule: Q01DX005 (ip), vehicle: sodium bicarbonate) 0 of 6.

Regarding `CCOc1ccc2c(c1)c(C)cc(C)[n+]2CC`, the survivor count (dose: 25.0 mg/kg/injection, schedule: Q04DX003 (ip), vehicle: saline with Tween-80) was 0 of 6.

Take `CCC[CH2][Sn](=[O])[c]1ccccc1`: under setting [10], the T/C was 147 % of control [5 of 6 alive]. Further, the survivor count is 2 of 6 under setting [11] and 1 of 6 under setting [12].

Regarding `Cc1ccc(N=C(N)NN=C(c2ccc(Cl)cc2)c2ccc(Cl)cc2)cc1`, the survivor count under setting [13] is 0 of 6 and 1 of 6.

With `COP(=S)(OC)SCc1cc(=O)n2c(C)cccc2n1`, the survivor count is, setting by setting: (dose: 50.0 mg/kg/injection, schedule: Q01DX005 (ip), vehicle: distilled water + alcohol) 1 of 6; (dose: 100.0 mg/kg/injection, schedule: Q01DX005 (ip), vehicle: distilled water + alcohol) 0 of 6; (dose: 200.0 mg/kg/injection, schedule: Q01DX005 (ip), vehicle: distilled water + alcohol) 0 of 6.

As to `CC(=O)Oc1ccc(/C=N\N(C)C)cc1`, under setting [2], the survivor count is 6 of 6.

On to `CC(=O)c1cc[n+](Cc2cc3ccccc3nc2Br)cc1`, for which the survivor count runs as follows: under setting [10], 0 of 6; under setting [11], 0 of 6; under setting [12], 0 of 6.

Turning to `COc1ccc2ccccc2c1C1=CC(c2ccccc2)C(c2cc(C)n(-c3ccccc3)n2)C(=O)N1` (stereo unspecified), under setting [13], the survivor count was 4 of 6.

In the case of `CCN(CC)CCN1C(=O)c2cccc3c(N)c(OC)cc(c23)C1=O`, the T/C (dose: 200.0 mg/kg/injection, schedule: Q01DX005 (ip), vehicle: saline) is 133 and 138 % of control.

On to `CCOc1ccc(C(/C(Cl)=N/O)C(Cl)(Cl)Cl)cc1` (stereo unspecified), for which the survivor count under setting [4] is given as 3 of 6.

Turning to `Cc1csc(/N=C2\N/C(=N\c3nc(C)cs3)c3ccccc32)n1`, the survivor count under setting [9] is recorded as 5 of 6.

On to `C/C=C/C[P+](C)(c1ccccc1)c1ccccc1`, for which the survivor count is 1 of 6 (dose: 1.5 mg/kg/injection, schedule: Q01DX009 (ip), vehicle: saline) and 0 of 6 (dose: 3.0 mg/kg/injection, schedule: Q01DX009 (ip), vehicle: saline).
